Not every entry of the source has a single result; some have several. This is not the full list of results. The source may hold further records. The values listed for one entry differ, and nothing given here explains why; dose, time, organism, isomer or construct need not be as stated for each record.
Target: GST-Pin1 (Homo sapiens, UniProt Q13526)
Assay: Fluorescence polarization (FP) competition assay
Conditions: read-out: Ki (apparent), competition with fluorescein-labeled peptide, 250 nM GST-Pin1
Description: Binding affinity to Pin1 was determined using a fluorescence polarization assay to assess competition with an N-terminal fluorescein-labeled peptide (Bth-D-phosThr-Pip-Nal), which was obtained from JPT Peptide Technologies and Proteintech Group. The indicated concentrations of candidate compound were pre-incubated for 12 hours at 4° C. with a solution containing 250 nM glutathione S-transferase (GST)-Pin1, 5 nM of fluorescein-labeled peptide probe, 10 μg/ml bovine serum albumin, 0.01% Tween-20 and 1 mM DTT (dithiothreitol) in a buffer of 10 mM HEPES, 10 mM NaCl and 1% glycerol (pH 7.4). Measurements of FP were performed in black 384-well plates (Corning) using an EnVision™ reader. Apparent Ki values (under the tested conditions) obtained from the FP assay results were derived from the Kenakin Ki equation:
Kenakin Ki=(Lb)(EC50)(Kd)/(Lo)(Ro)+Lb(Ro−Lo+Lb−Kd) […]
Covalent labeling of Pin1 was confirmed to translate into enzyme inhibition via a fluorescence polarization (FP) competition assay using a FITC-labeled substrate mimetic peptide inhibitor, as well as a chymotrypsin-coupled PPIase assay, using procedures described in Wei et al. [Nat Med 2015, 21:457-466]. […]

By UniProt entry, the sequences of proteins in these tests, tags left out.
UniProt Q13526, whole entry: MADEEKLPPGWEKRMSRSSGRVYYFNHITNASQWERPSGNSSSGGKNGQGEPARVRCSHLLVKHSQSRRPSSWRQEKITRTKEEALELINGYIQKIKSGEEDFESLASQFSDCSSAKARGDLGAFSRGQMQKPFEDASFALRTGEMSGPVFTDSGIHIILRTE

Ki: 40 nM and 194 nM
Structure (SMILES): O=C(CCl)N(Cc1cccs1)C1CCS(=O)(=O)C1 (stereo not shown) [Pin1-433]

— US20210332024A1, “MODULATORS OF PIN1 ACTIVITY AND USES THEREOF” (Yeda Research and Development Co. Ltd., priority 2019, published 2021)
